{"source": "paper doi:10.1101/178822", "binders": {"B1": {"name": "PCDH10 (protein, UniProt Q9P2E7 19-1040)", "chain": "QLHYTVQEEQEHGTFVGNIAEDLGLDITKLSARGFQTVPNSRTPYLDLNLETGVLYVNEKIDREQICKQSPSCVLHLEVFLENPLELFQVEIEVLDINDNPPSFPEPDLTVEISESATPGTRFPLESAFDPDVGTNSLRDYEITPNSYFSLDVQTQGDGNRFAELVLEKPLDREQQAVHRYVLTAVDGGGGGGVGEGGGGGGGAGLPPQQQRTGTALLTIRVLDSNDNVPAFDQPVYTVSLPENSPPGTLVIQLNATDPDEGQNGEVVYSFSSHISPRARELFGLSPRTGRLEVSGELDYEESPVYQVYVQAKDLGPNAVPAHCKVLVRVLDANDNAPEISFSTVKEAVSEGAAPGTVVALFSVTDRDSEENGQVQCELLGDVPFRLKSSFKNYYTIVTEAPLDREAGDSYTLTVVARDRGEPALSTSKSIQVQVSDVNDNAPRFSQPVYDVYVTENNVPGAYIYAVSATDRDEGANAQLAYSILECQIQGMSVFTYVSINSENGYLYALRSFDYEQLKDFSFQVEARDAGSPQALAGNATVNILIVDQNDNAPAIVAPLPGRNGTPAREVLPRSAEPGYLLTRVAAVDADDGENARLTYSIVRGNEMNLFRMDWRTGELRTARRVPAKRDPQRPYELVIEVRDHGQPPLSSTATLVVQLVDGAVEPQGGGGSGGGGSGEHQRPSRSGGGETSLDLTLILIIALGSVSFIFLLAMIVLAVRCQKEKKLNIYTCLASDCCLCCCCCGGGGSTCCGRQARARKKKLSKSDIMLVQSSNVPSNPAQVPIEESGGFGSHHHNQNYCYQVCLTPESAKTDLMFLKPCSPSRSTDTEHNPCGAIVTGYTDQQPDIISNGSILSNETKHQRAELSYLVDRPRRVNSSAFQEADIVSSKDSGHGDSEQGDSDHDATNRAQSAGMDLFSNCTEECKALGHSDRCWMPSFVPSDGRQAADYRSNLHVPGMDSVPDTEVFETPEAQPGAERSFSTFGKEKALHSTLERKELDGLLTNTRAPYKPPYLTRKRIC"}}, "target": "T1, Protocadherin 19 (UniProt Q8TAB3)", "T1 sequence": "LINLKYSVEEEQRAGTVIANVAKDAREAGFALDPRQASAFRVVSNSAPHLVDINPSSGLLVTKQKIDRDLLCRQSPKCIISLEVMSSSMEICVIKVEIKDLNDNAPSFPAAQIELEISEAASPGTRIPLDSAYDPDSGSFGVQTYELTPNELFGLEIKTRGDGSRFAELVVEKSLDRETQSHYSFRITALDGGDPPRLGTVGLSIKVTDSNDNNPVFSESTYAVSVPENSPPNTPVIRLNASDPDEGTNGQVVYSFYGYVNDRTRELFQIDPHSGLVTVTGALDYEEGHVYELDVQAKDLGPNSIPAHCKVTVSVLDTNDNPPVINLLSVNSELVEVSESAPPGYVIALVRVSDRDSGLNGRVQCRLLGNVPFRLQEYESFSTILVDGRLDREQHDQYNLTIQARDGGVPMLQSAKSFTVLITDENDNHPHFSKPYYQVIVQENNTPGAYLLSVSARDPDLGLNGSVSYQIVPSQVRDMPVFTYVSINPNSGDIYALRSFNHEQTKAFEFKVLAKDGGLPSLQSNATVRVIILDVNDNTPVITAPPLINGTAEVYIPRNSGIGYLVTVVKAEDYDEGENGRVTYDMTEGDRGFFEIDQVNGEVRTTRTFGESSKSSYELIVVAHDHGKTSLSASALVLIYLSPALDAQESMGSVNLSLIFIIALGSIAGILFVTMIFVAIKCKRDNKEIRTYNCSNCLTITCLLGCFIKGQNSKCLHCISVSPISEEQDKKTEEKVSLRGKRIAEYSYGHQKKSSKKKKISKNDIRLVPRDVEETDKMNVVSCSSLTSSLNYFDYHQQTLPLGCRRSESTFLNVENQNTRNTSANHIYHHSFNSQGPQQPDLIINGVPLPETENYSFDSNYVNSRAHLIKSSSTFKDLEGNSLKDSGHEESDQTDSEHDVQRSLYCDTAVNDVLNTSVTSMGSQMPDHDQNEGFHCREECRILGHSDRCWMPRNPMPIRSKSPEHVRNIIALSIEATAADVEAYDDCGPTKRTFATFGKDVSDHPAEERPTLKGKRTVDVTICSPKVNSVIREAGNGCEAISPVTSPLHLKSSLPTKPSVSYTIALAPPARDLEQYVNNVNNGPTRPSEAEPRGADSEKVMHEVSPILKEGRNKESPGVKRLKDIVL", "assay": "co-IP", "note": "Results are given in words; binding and its absence hold for the method and conditions named. Binding seen in cells or lysates may run through a third protein. Some entries that bind do so weakly or less than the wild type.", "data": [{"binder": "B1", "values": [{"measurement": "binding", "result": "binds"}]}]}
